# Data as given in PubChem BioAssay AID493014 (National Center for Advancing Translational Sciences (NCATS), 2011).
# About 170 (0.05%) of roughly 340,000 compounds were called active. Inconclusive means that the source gave no clear call. Such entries were picked first, then a sample of the others. Calls follow the shape of the dose curve; as a rule, active = well fitted inhibition curve with a large enough effect in the signal ratio, with a control signal flat (not every such curve was filed as active); inconclusive = small, poorly fitted or top-dose-only effect, or effect the other way, or a change in a side signal; inactive = flat fitted curve, though single readings scatter; the % refers to the signal ratio. Where the call is inconclusive, the potency comes from a doubtful curve fit.
# Assay: qHTS Assay to Find Inhibitors of Chronic Active B-Cell Receptor Signaling;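 as to activity change, negative = inhibition: plate controls were basal doxycycline-induced cells for no effect and cells given 10 µM MG132 for full effect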
# Conditions: ABC-DLBCL IkBa-CBG/CBR reporter, luminescence ratio (green luciferase fused to IkBa over red control in TMD8 lymphoma cells), 4 h; activity change, negative = inhibition: at 46.1 µM (top of the series) unless noted
# Summary of the method: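 TMD8 ABC-DLBCL cells carrying doxycycline-inducible green luciferase fused to IkappaBalpha plus unfused red luciferase were exposed to compounds (up to 46 uM) for 4 hrs at 37C. Activity came from the overlap-corrected green/red luminescence ratio.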
# Potency is read from the fitted curve at half-maximal effect.
SMILES,"activity change, negative = inhibition",Potency
Cn1c(/C(C#N)=C/C2CC=CCC2)nc2ccccc21 (stereo unspecified),inconclusive: -7.3%,
O=c1oc2ccccc2cc1-c1ccc(O)cc1,inconclusive: 16%,
CC(C)(C)c1cc(C(C)(C)C)c2oc(=O)c(-c3nc4ccc(C(=O)O)cc4[nH]3)cc2c1,,"inconclusive: 9.2 µM [falling, partial curve]"
CCN(CC)c1ccc(/C=N/NC(=O)c2cnccn2)cc1,,"inconclusive: 35.5 µM [cytotoxic, single point]"
O=C(CSc1c(Cl)cccc1Cl)NC1CCCc2ccccc21 (stereo unspecified),inconclusive: 8.49%,
Cc1ccc2c(COC(=O)CNC(=O)c3ccccc3)cc(=O)oc2c1,inconclusive: 14.3%,
CCn1c(C(=O)N2CCCC(C(=O)NCCCc3ccccc3)C2)cc2sccc21 (stereo unspecified),,"inconclusive: 16.4 µM [falling, single point]"
COCCNCCCCOc1c(Cl)cc(C)cc1Br,inconclusive: -28.7%,
CC(C)NC(=O)CSc1ccccc1C(=O)N1CCN(S(=O)(=O)/C=C/c2ccccc2)CC1,,"inconclusive: 11.6 µM [rising, partial curve, poor fit]"
O=C(N/N=C/c1ccc(O)cc1)c1[nH]c2ccc(Br)cc2c1-c1ccccc1,,"inconclusive: 1.64 µM [falling, full curve]"
CNC(=S)N/N=C/c1c(C)nn(-c2ccc(F)cc2)c1Cl,inactive: -3.7%,
CCOc1ncccc1C(=O)OCC(=O)c1ccc(Cl)s1,inconclusive: 1.02%,
Cc1nnc(SCc2cnc(-c3ccccc3)o2)[nH]c1=O,inconclusive: 15.7%,
CCOC(=O)CSc1nc2ccccc2n1C(=O)OCC,,"inconclusive: 6.31 µM [falling, full curve]"
Cc1ccc(NC(=S)N(Cc2ccc(Br)cc2)Cc2ccc(C(=O)O)cc2)cc1C,inactive: 3.14%,
COc1ccc(-c2noc(CCC(=O)NC3CCCC3)n2)cc1,,"inconclusive: 8.91 µM [rising, partial curve, poor fit]"
CCn1c(=O)c(-c2cc(=O)[nH][nH]2)c(O)c2ccccc21,inactive: 1.7%,
CN1CC2(C)OC(=O)C(Cl)=C2CC1c1ccccc1 (stereo unspecified),inactive: 2.87%,
Cc1ccccc1C(=O)OCC(=O)NCC1COc2ccccc2O1 (stereo unspecified),inactive: 0.823%,
O=C(/C=C/c1cccc(F)c1)Nc1nccs1,inconclusive: -17.6%,
Cc1ccc(N/C(N)=N/c2nc(CSc3nnc(C)s3)cc(=O)[nH]2)c(C)c1,inconclusive: -13.1%,

# 4 structures already listed, ordered by length of the SMILES, rising.
SMILES,"activity change, negative = inhibition",Potency
CCN(CC)c1ccc(/C=N/NC(=O)c2cnccn2)cc1,,"inconclusive: 35.5 µM [cytotoxic, single point]"
Cc1ccc2c(COC(=O)CNC(=O)c3ccccc3)cc(=O)oc2c1,inconclusive: 14.3%,
O=C(N/N=C/c1ccc(O)cc1)c1[nH]c2ccc(Br)cc2c1-c1ccccc1,,"inconclusive: 1.64 µM [falling, full curve]"
CC(C)NC(=O)CSc1ccccc1C(=O)N1CCN(S(=O)(=O)/C=C/c2ccccc2)CC1,,"inconclusive: 11.6 µM [rising, partial curve, poor fit]"

# (list continues)

SMILES,"activity change, negative = inhibition",Potency
COc1ccc(C(=NNc2ccccc2C(=O)O)c2ccc(OC)cc2)cc1,inconclusive: -4.09%,
CCc1cc(C(N)=O)c(NC(=O)c2ccc(OC)cc2)s1,inconclusive: 5%,
Cc1c(-n2cc(C(=O)c3cc(Br)ccc3O)cc(C#N)c2=O)c(=O)n(-c2ccccc2)n1C,inconclusive: 2.93%,
CC1CC(C)CN(C(=O)COC(=O)CCCN2C(=O)c3cccc4cccc(c34)C2=O)C1 (stereo unspecified),,"inconclusive: 0.316 µM [rising, full curve]"
CCCc1cc(C(=O)Nc2ccc(F)c(Cl)c2)no1,,"inconclusive: 35.5 µM [rising, single point]"
CCc1nccn1CCC(=O)NC1CCCc2c1cnn2-c1ccc(F)cc1F (stereo unspecified),inconclusive: -0.327%,
CC1C(=O)Nc2ccc(S(=O)(=O)NCCc3ccc(Cl)cc3)cc2NC1=O (stereo unspecified),inconclusive: -20.7%,
Cc1cc(C)nc(NS(=O)(=O)c2ccc(NC(=O)NC3CCCCC3)cc2)n1,inconclusive: -9.01%,
COC(=O)[C@]1(Cc2ccccc2)N[C@H](c2ccc(-c3ccc(F)cc3)cc2)[C@@H]2C(=O)N(C)C(=O)[C@@H]21,inconclusive: 4.69%,
Cc1csc(NC(=O)CNC(=O)OCc2ccccc2)n1,inconclusive: -2%,
O=C(NCCCNC(=O)c1ccc(-c2cccc(Cl)c2)o1)c1cnccn1,inactive: 0.149%,
CN1/C(=C/c2cc[n+](C)c3ccccc23)C=Cc2ccccc21,,"inconclusive: 2 µM [rising, full curve, poor fit]"
COc1ccccc1NC(=O)c1cc2c(CO)cnc(C)c2oc1=Nc1ccc(OC)c(OC)c1,inconclusive: -0.488%,
O=C(CSc1nnc(NC(=O)c2ccccc2F)s1)NCc1ccco1,inactive: -1.32%,
Cc1ccc2cc(CN(CC(C)C)S(=O)(=O)c3ccccc3)c(=O)[nH]c2c1,,"inconclusive: 2.24 µM [falling, full curve, poor fit]"
Cc1cc(OCC(=O)NCCCN(C)C)cc(C)c1Br,inconclusive: -4.85%,
Cc1ccc(-n2c(Cc3noc4ccccc34)n[nH]c2=S)cc1,,"inconclusive: 10 µM [falling, partial curve]"
OC1(c2ccc(Cl)cc2)CN(c2ccccc2)C2=[N+]1CCS2 (stereo unspecified),inactive: 29%,
Cc1ccc(S(=O)(=O)N2CCC(=O)N(CCOC(=O)Nc3cccc(Cl)c3)CC2)cc1,inactive: -7.33%,
C(=N\N1CCN(c2ccccn2)CC1)/c1ccccn1,,"inconclusive: 28.2 µM [falling, single point]"
O=C1C=C(c2ccc(F)nc2)C[C@@H](c2ccc3c(c2)OCO3)C1,inactive: -2.87%,

SMILES,"activity change, negative = inhibition",Potency
CCCSc1nnc(NC(=O)Nc2ccccc2)s1,inconclusive: 13.3%,
CNC(=O)c1[nH]cnc1C(=O)Nc1ccc(OC)cc1,inactive: -6.3%,
COc1ccccc1N1CCN(C(=O)c2sc3nc(C)nc(N4CCN(c5ccccn5)CC4)c3c2C)CC1,inconclusive: 5.17%,
Cc1ccc(S(=O)(=O)c2ccccc2)cc1S(=O)(=O)N1CCOCC1,inconclusive: 6.03%,
CS(=O)(=O)N(CC(=O)NCCSC1CCCCC1)c1ccccc1,inactive: -1.57%,
O=C(Oc1ccnc2cc(Cl)ccc12)N1CCCCCC1,,"inconclusive: 31.6 µM [falling, partial curve, poor fit]"
CCN(CC)C(=O)COc1ccc(/C(C)=N/NC(=O)c2ccccc2Br)cc1,,"inconclusive: 31.6 µM [falling, partial curve]"
O=S(=O)(c1ccc(SCCOc2cccc(Br)c2)nc1)N1CCCC1,inconclusive: -0.0212%,
Nc1nc(SCC(=O)O)[nH]c(=O)c1NC(=O)c1ccccc1F,inconclusive: 4.42%,
CCOC(=O)C1=CN(CC)S(=O)(=O)NC1CCc1ccccc1 (stereo unspecified),inconclusive: -19.6%,
CCOc1ccccc1NC(=O)c1cc(C(=O)c2cc(OC)ccc2O)coc1=N,,"inconclusive: 16.4 µM [falling, partial curve, poor fit]"
COc1ccccc1Nc1ncc(C(=O)Nc2ccc(OC)c(OC)c2)c2ccccc12,inconclusive: 0.688%,
Cc1ccc(N2CC(C(=O)Nc3ccc(C)c(S(=O)(=O)N(C)C)c3)CC2=O)cc1 (stereo unspecified),inconclusive: -7.03%,
Cn1c(SCC(=O)Nc2ccc(NC(=O)c3cccc(F)c3)cc2)nnc1-c1ccncc1,inconclusive: -2.06%,
Cc1cccc2c1N(CCCOc1ccc(C(C)(C)C)cc1)C(=O)C2=O,inactive: 14.8%,
O=c1[nH]nc(CNc2ccc(OC(F)(F)F)cc2)c2ccccc12,inconclusive: -9.2%,
Cc1ccc(S(=O)(=O)N/N=C\c2ccc3c(c2)OCO3)cc1,inactive: 2.62%,
COc1ccc(CNC(=O)c2cccc(-c3ccc(C)c4ccccc34)n2)cc1,inactive: -9.52%,
Cc1ccccc1C(=O)Oc1ccc(Br)cc1C(=S)N1CCCC1,inactive: 15.1%,
CC(C)c1csc(CN2CCC(N3CCC(C(=O)NCC4CCCO4)CC3)CC2)n1 (stereo unspecified),inconclusive: 13.4%,
CCOc1ccc(OCCNC(=O)C(NC(=O)c2c(F)cccc2F)C(C)C)cc1 (stereo unspecified),inactive: -0.464%,

SMILES,"activity change, negative = inhibition",Potency
O=C(Nc1ccc(CN2CCCCC2)cc1)Nc1ccccc1Cl,inactive: 2.03%,
CCCN1CN(Cc2ccccc2)CC2=C1CC(C)(C)CC2=O,inconclusive: 0.317%,
O=C(CSc1ncnc2[nH]ncc12)Nc1cccc(Oc2ccccc2)c1,,"inconclusive: 35.5 µM [falling, partial curve, poor fit]"
Cc1ccc(/C=C/C(=O)NCc2cccs2)c(C)c1,inconclusive: -5.28%,
C/C(=N\NC(=O)c1cc(C)[nH]n1)c1ccc(-c2ccccc2)cc1,inconclusive: 16%,
COc1ccccc1C(=O)NNC(=O)c1ccc(Br)cc1,inconclusive: -24.8%,
O=C(/C=C/c1ccccc1)Nc1cccnc1Oc1ccccc1F,,"inconclusive: 11.2 µM [falling, partial curve]"
CC(OC(=O)Cc1n[nH]c(=O)c2ccccc12)C(=O)Nc1ccc(F)cc1 (stereo unspecified),,"inconclusive: 5.8 µM [falling, partial curve, poor fit]"
O=C(O)/C=C/C(=O)Nc1cccnc1,inactive: -0.374%,
COc1ccc(S(=O)(=O)Nc2cccc(-c3ccc4nncn4n3)c2)cc1F,,"inconclusive: 11.2 µM [falling, partial curve]"
Cc1nc2ccccc2c(=O)n1/N=C/c1c(O)ccc2ccccc12,,"inconclusive: 1.12 µM [falling, full curve, poor fit]"
Cc1noc(C)c1Cn1nc(C(=O)O)c2ccccc2c1=O,inconclusive: -0.399%,
CCN1C(=S)SC(=O)C1=C1C=C(C)N(CCO)C(C)=C1,inconclusive: -0.761%,
Cc1ccc(-n2c(C)nc3oc4ccccc4c(=O)c3c2=O)cc1,,"inconclusive: 5.62 µM [falling, partial curve]"
Cc1sc2ncn(CC(=O)N(CC(=O)NC3CCCC3)Cc3cccs3)c(=O)c2c1C,inconclusive: 2.41%,
Cc1cccc(C(=O)Nc2cccc3cccnc23)c1,inconclusive: -19%,
CCN(CC)c1ccc(/C=C(/C#N)c2nc3ccccc3[nH]2)c(OC(C)C)c1,inconclusive: 15.7%,
COc1ccc(Cl)cc1C(=O)NNC(=O)c1ccc(F)c(S(=O)(=O)N2CCOCC2)c1,inconclusive: -6.6%,
